Values quoted from earlier work as cited in patent publication US20100179144A1, “QUINAZOLINE DERIVATIVES AS P13 KINASE INHIBITORS” (priority 2007, published 2010).

Sequences of proteins named here, by UniProt entry; tags and fusion partners are left off.
UniProt P68400, whole entry: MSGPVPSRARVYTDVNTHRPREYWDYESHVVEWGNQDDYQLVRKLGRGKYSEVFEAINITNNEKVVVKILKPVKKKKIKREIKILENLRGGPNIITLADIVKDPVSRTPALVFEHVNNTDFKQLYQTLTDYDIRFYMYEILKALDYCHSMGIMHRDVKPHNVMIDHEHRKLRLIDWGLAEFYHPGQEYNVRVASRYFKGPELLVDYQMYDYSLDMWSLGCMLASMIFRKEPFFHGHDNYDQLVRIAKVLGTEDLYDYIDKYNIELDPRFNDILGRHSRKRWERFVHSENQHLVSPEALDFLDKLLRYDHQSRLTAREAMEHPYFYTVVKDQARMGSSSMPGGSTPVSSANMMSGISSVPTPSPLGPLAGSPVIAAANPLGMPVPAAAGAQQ

Columns and labels:
CK2 protein kinase = CK2 protein kinase (Homo sapiens, UniProt P68400); settings: literature value
Class I PI3-kinases = settings: literature value; read-out: IC50 against each of the various Class I PI3-kinases

Compound	IC50 (CK2 protein kinase) [µM]	IC50 (Class I PI3-kinases) [µM]
O=c1cc(N2CCOCC2)oc2c(-c3ccccc3)cccc12 [LY294002]	5 to 10	–
COC[C@H]1OC(=O)c2coc3c2[C@@]1(C)C1=C(C3=O)[C@@H]2CCC(=O)[C@@]2(C)C[C@H]1OC(C)=O [wortmannin]	–	0.001 to 0.01
